Reference: PubChem BioAssay (NCATS)
This is one part of the list. These are further read-outs of the screen, such as a control signal, another cell line or another target. No call is given for them. Most of these compounds were active or inconclusive in the main read-out, so they are no random draw.

experiment: qHTS assay for small molecule agonists of retinoid X receptor alpha signaling (AID 588544); conditions: HEK293T RXRa-UAS-bla, beta-lactamase reporter, 18 h; 530 nm emission

SMILES | max response [%]
O=C1NC(=O)C(Cc2ccc(OCCN3COc4ccccc4C3=O)cc2)S1 (stereo not given) | 53
CCCCCCC(C)OC(=O)COc1nc(F)c(Cl)c(N)c1Cl (stereo not given) | 10.3
CN=C(N)NCC1CCOC1 (stereo not given) | -12
CC/C=C/C/C=C/C/C=C/CCCCCCCC(=O)OCC | 60
CC1=C(/C=C/C(C)=C/C=C/C(C)=C\C=O)C(C)(C)CCC1 | 2.29
O=C1OC(O)C(C(Cl)Cl)=C1Cl (stereo not given) | 16.8
C[C@H]1C[C@H]2[C@@H]3CCC4=CC(=O)C=C[C@]4(C)[C@@]3(F)[C@@H](O)C[C@]2(C)[C@@]1(O)C(=O)CO | 38.6
COc1cc(-c2ccc(N=C=O)c(OC)c2)ccc1N=C=O | -39.4
CCCc1c(OCCCCc2nn[nH]n2)ccc(C(C)=O)c1O | 24.7
CCCCC(CC)CN1C(=O)C2C3C=CC(C3)C2C1=O (stereo not given) | 5.09
CCN(Cc1cccc(S(=O)(=O)O)c1)c1ccc(C(=C2C=CC(=[N+](CC)Cc3cccc(S(=O)(=O)[O-])c3)C=C2)c2ccccc2)cc1 | 54.1
CC1(C)[C@@H]([C@@H](Br)C(Br)(Br)Br)[C@H]1C(=O)O[C@H](C#N)c1cccc(Oc2ccccc2)c1 | -8.16
[O-]/[N+](=N\O)c1ccccc1 | 25
CC[C@H]1OC(=O)[C@H](C)[C@@H](O[C@H]2C[C@@](C)(OC)[C@@H](O)[C@H](C)O2)[C@H](C)[C@@H](O[C@@H]2O[C@H](C)C[C@H](N(C)C)[C@H]2O)[C@](C)(O)C[C@@H](C)CN(C)[C@H](C)[C@@H](O)[C@]1(C)O | 29.6
Oc1ccc(Nc2ccccc2)cc1 | 51.8

Pulled one by one from the entries so far, two records:
SMILES | max response [%]
CCCCCCC(C)OC(=O)COc1nc(F)c(Cl)c(N)c1Cl (stereo not given) | 10.3
COc1cc(-c2ccc(N=C=O)c(OC)c2)ccc1N=C=O | -39.4
